No constants are given. Whether binding was seen depends on the method and setting. Some results given as binding are weak or reduced against the parent protein; the word gives no strength.
Molecular target: T1, NF-kB p50 from nuclear extracts of mouse tissue (NC/Nga ears; SJL/J colon) (mouse), P25799
T1 chain: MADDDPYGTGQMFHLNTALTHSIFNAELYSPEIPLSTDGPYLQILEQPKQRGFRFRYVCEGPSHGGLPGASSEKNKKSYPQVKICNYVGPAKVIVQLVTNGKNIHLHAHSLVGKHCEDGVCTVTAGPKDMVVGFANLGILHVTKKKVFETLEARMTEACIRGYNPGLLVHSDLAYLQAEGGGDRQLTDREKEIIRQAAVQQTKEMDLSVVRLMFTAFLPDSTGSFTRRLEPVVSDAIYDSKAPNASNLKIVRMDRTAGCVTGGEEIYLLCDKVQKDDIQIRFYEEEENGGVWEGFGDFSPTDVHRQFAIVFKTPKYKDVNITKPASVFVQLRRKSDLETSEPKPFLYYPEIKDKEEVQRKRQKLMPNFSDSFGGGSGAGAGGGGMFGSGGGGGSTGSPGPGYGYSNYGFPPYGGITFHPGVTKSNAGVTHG
Assay: EMSA band composition by antibody supershift, nuclear extract of NC/Nga mouse ears
Conditions: remark: other sources report otherwise

binding: binds
B1: NF-kB p65 from nuclear extracts of mouse tissue (NC/Nga ears; SJL/J colon), Q04207 1-549 (protein, UniProt Q04207 1-549, looked up)
chain: MDDLFPLIFPSEPAQASGPYVEIIEQPKQRGMRFRYKCEGRSAGSIPGERSTDTTKTHPTIKINGYTGPGTVRISLVTKDPPHRPHPHELVGKDCRDGYYEADLCPDRSIHSFQNLGIQCVKKRDLEQAISQRIQTNNNPFHVPIEEQRGDYDLNAVRLCFQVTVRDPAGRPLLLTPVLSHPIFDNRAPNTAELKICRVNRNSGSCLGGDEIFLLCDKVQKEDIEVYFTGPGWEARGSFSQADVHRQVAIVFRTPPYADPSLQAPVRVSMQLRRPSDRELSEPMEFQYLPDTDDRHRIEEKRKRTYETFKSIMKKSPFNGPTEPRPPTRRIAVPTRNSTSVPKPAPQPYTFPASLSTINFDEFSPMLLPSGQISNQALALAPSSAPVLAQTMVPSSAMVPLAQPPAPAPVLTPGPPQSLSAPVPKSTQAGEGTLSEALLHLQFDADEDLGALLGNSTDPGVFTDLASVDNSEFQQLLNQGVSMSHSTAEPMLMEYPEAITRLVTGSQRPPDPAPTPLGTSGLPNGLSGDEDFSSIADMDFSALLSQISS

From US20070010474A1
